Results reported in patent US20230272054A1, “COMBINATION THERAPIES FOR THE TREATMENT AND PREVENTION OF BIOFILMS” (priority 2020, published 2023).
Results are given in words; binding and its absence hold for the method and conditions named. Some results given as binding are weak or reduced against the parent protein; the word gives no strength. For some assays here: Where a sequence is shown, tags or fusion partners need not be part of it.

Amino acid sequences for entries named in this document (tags omitted). A change or cut given only in a name is not applied to a line headed by its entry.
UniProt P09429: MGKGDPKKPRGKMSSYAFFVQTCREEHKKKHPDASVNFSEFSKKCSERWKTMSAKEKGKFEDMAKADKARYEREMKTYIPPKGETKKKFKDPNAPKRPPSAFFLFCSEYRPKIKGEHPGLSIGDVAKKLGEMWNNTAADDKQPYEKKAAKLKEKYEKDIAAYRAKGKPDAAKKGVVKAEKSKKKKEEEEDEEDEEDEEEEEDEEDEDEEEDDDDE

What was measured:
[1] = target: T1, IHFNTHI, native integration host factor (DNABII protein) of nontypeable Haemophilus influenzae (nontypeable Haemophilus influenzae (NTHI)) (UniProt P43723); assay: SPR (Biacore)
T1 sequence 1: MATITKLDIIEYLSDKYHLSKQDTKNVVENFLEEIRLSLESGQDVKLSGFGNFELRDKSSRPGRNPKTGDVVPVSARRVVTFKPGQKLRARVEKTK
T1 sequence 2: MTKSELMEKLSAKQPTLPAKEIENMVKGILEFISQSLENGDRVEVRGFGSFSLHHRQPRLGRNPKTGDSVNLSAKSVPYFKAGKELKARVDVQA

[2] = target: T2, HUNTHI, native histone-like protein HU (DNABII protein) of nontypeable Haemophilus influenzae (nontypeable Haemophilus influenzae (NTHI)) (UniProt P43722); assay: SPR (Biacore)
T2 sequence: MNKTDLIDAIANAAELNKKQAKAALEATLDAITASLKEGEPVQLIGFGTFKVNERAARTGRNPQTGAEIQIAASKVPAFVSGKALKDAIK

mHMGB1 (C45S), recombinant human HMGB1 with an engineered single amino acid mutation C45S (from UniProt P09429 1-215)
binding [1]: binds
binding [2]: binds
